Results are given in words; binding and its absence hold for the method and conditions named. In cells and extracts the contact can be indirect. Some results given as binding are weak or reduced against the parent protein; the word gives no strength. Sequences can lack the tags named with a protein.
Target: Myc-YOD1 (UniProt Q5VVQ6)
Assay: co-IP; Flag-TRIM54 and Myc-YOD1 cotransfected into HEK 293T cells, 24 h; RIPA lysate; anti-Myc or anti-FLAG overnight at 4 °C; beads washed with RIPA three times; Western blot

The chains behind the UniProt entries cited, without tags or fusion partners.
UniProt Q5VVQ6: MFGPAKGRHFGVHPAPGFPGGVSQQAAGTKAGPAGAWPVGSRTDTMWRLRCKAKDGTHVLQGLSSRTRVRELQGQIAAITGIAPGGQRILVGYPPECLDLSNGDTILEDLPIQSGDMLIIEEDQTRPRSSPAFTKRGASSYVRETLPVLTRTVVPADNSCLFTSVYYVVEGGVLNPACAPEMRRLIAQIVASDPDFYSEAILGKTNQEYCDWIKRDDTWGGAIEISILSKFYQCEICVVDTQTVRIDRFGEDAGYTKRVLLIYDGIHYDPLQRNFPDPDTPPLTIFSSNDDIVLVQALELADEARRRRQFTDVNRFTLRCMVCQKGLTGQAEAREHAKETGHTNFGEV

binding: binds
B1: Flag-TRIM54 (protein, UniProt Q9BYV2 1-358)
chain: MNFTVGFKPLLGDAHSMDNLEKQLICPICLEMFSKPVVILPCQHNLCRKCANDVFQASNPLWQSRGSTTVSSGGRFRCPSCRHEVVLDRHGVYGLQRNLLVENIIDIYKQESSRPLHSKAEQHLMCEEHEEEKINIYCLSCEVPTCSLCKVFGAHKDCEVAPLPTIYKRQKSELSDGIAMLVAGNDRVQAVITQMEEVCQTIEDNSRRQKQLLNQRFESLCAVLEERKGELLQALAREQEEKLQRVRGLIRQYGDHLEASSKLVESAIQSMEEPQMALYLQQAKELINKVGAMSKVELAGRPEPGYESMEQFTVRVEHVAEMLRTIDFQPGASGEEEEVAPDGEEGSAGPEEERPDGP
